# According to the supplement of paper PMC11732987, “Enantioselective OTUD7B fragment discovery through chemoproteomics screening and high-throughput optimisation” (Communications Chemistry, 2025):
# This is one part of the list. The data scatter; read single values as rough.
# Target: ATP1A1 C374 (UniProt P05023)
# Experiment: log2 mean competition ratio of IA-DTB cysteine labelling (DMSO/compound) (log2 ratio); higher = stronger cysteine engagement by compound
# Details: 50 µM; treatment time: 4 h; cell line lysate: HEK293T
# Protocol: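 IA-DTB competitive cysteine chemoproteomics in HEK293T RIPA lysate. Lysates were treated with compound 29 or 30 at 50 or 200 µM for 4 h, then IA-DTB (500 µM, 1 h), trypsin-digested, NeutrAvidin-enriched and analysed by diaPASEF. Competition ratio = intensity DMSO / intensity compound (n=4 treated, n=64 DMSO); binding: mean log2 CR ≥ 1 and p ≤ 0.05 plus QC filters. Target is the cysteine site.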
row,Structure (SMILES),log2 mean competition ratio
1,O=C(CCl)N[C@H]1CCCc2ccccc21,-0.106
2,O=C(CCl)N[C@@H]1CCCc2ccccc21,-0.181

# Same assay, conditions: 200 µM; treatment time: 4 h; cell line lysate: HEK293T
row,Structure (SMILES),log2 mean competition ratio
1,O=C(CCl)N[C@H]1CCCc2ccccc21,-0.121
2,O=C(CCl)N[C@@H]1CCCc2ccccc21,-0.231
